Common to all, as to assay: binding assay
The test system of one data set is elastase. The following applies: 25 nM protein, purified native protein.
Another data set deals with hemoglobin. The conditions noted are these: 25 nM protein, purified native protein.
The next data set deals with immunoglobulin G (IgG). The following applies: 25 nM protein, purified native protein.
The target of the next data set is proteinase K (UniProt P06873). The following applies: 25 nM protein, purified native protein.
Data set [1] addresses single-strand DNA-binding protein (SSDBP) (UniProt P0AGE0). The conditions noted are these: 25 nM protein, purified recombinant protein.
Another data set has as its system thrombin. The following applies: 50 nM each strand, purified native protein.
[2] abbreviates: Split-THRa: TGGTTGGTTTTTT-(Spacer18)5-CGC-D-TCT, D = quinoline blue at 4th position from 3' end (D and spacers not shown in listing), Split-THRb: AGATGCG-(Spacer18)5-AAAAAAGGTTGGTG, no probe turn-on, TBS with 100 mM KCl, 10 C, label: quinoline blue (internal, Split-THRa).
Where [3] appears, read: THR1D: GGTTGGTGTGGTTGG-(Spacer18)5-CGC-D-TCT, D = quinoline blue base surrogate at 4th position from 3' end (D and spacers not shown in listing), THR2: AGATGCG-(Spacer18)5-AGTCCGTGGTAGGGCAGGTTGGGGTGACT, negligible signal, TBS pH 7.4, 10 C, label: quinoline blue (internal, THR1D).

The values that follow come from patent publication US20220348985.

The exact form of at least one protein or probe is not confirmed. For part of these data: No signal at the amounts used counts as a negative.

Turning to “TGGTTGGTTTTTTCGCTCT / AGATGCGAAAAAAGGTTGGTG [Split-THRa + Split-THRb (FIT split aptamer)]”, the binding result is recorded as “no binding” with elastase (setting [2]); “no binding” in the data set with hemoglobin (setting [2]); “no binding” in the data set on immunoglobulin G (IgG) (setting [2]); “no binding” with proteinase K (setting [2]); “no binding” in data set [1] (Split-THRa: TGGTTGGTTTTTT-(Spacer18)5-CGC-D-TCT, D = quinoline blue at 4th position from 3' end (D and spacers not shown in listing), Split-THRb: AGATGCG-(Spacer18)5-AAAAAAGGTTGGTG, no probe turn-on (readout is dye turn-on, not direct binding), TBS with 100 mM KCl, 10 C, label: quinoline blue (internal, Split-THRa)); “binds” in the data set on thrombin (Split-THRa: TGGTTGGTTTTTT-(Spacer18)5-CGC-D-TCT, D = quinoline blue at 4th position from 3' end (D and spacers not shown in listing), Split-THRb: AGATGCG-(Spacer18)5-AAAAAAGGTTGGTG, 200 nM thrombin, Tris-buffered saline with 100 mM KCl pH 7.4, 10 C, LOD 14.76 nM, label: quinoline blue (internal, Split-THRa)).
In the case of “GGTTGGTGTGGTTGGCGCATCT / AGATGCGAGTCCGTGGTAGGGCAGGTTGGGGTGACT [THR1-F + THR2-T (FRET pair)]”, the binding result with thrombin ((Spacer18)5 between aptamer and 7-nt complementary tail in each strand, 50 nM thrombin, Tris-buffered saline pH 7.4, 10 C, [p98] gives 1.25-fold, label: 3' fluorescein (THR1-F), 5' TAMRA dT (THR2-T)) is reported as “binds”.
As for “GGTTGGTGTGGTTGGCGCTCT / AGATGCGAGTCCGTGGTAGGGCAGGTTGGGGTGACT [THR1D + THR2 (two-epitope FIT-aptamer pair)]”, the binding result with elastase (setting [3]) is “no binding”; in the data set on hemoglobin (setting [3]), “no binding”; in the data set on immunoglobulin G (IgG) (setting [3]) it was “no binding”; with proteinase K (setting [3]), “no binding”; in data set [1] (THR1D: GGTTGGTGTGGTTGG-(Spacer18)5-CGC-D-TCT, D = quinoline blue base surrogate at 4th position from 3' end (D and spacers not shown in listing), THR2: AGATGCG-(Spacer18)5-AGTCCGTGGTAGGGCAGGTTGGGGTGACT, negligible FIT signal (readout is dye turn-on, not direct binding), TBS pH 7.4, 10 C, label: quinoline blue (internal, THR1D)) it was “no binding”.
